Results taken from PubChem BioAssay AID504444 (National Center for Advancing Translational Sciences (NCATS), 2011).
Out of some 360,000 compounds screened, about 7,500 (2.1%) were called active. The shares of active, inactive and inconclusive entries below differ from those in the screen. Calls come from the whole dose curve; as a rule, active = well fitted inhibition curve with a large enough effect; inconclusive = small, poorly fitted or top-dose-only effect, or effect the other way; inactive = flat fitted curve, though single readings scatter. Potencies beside an inconclusive call are fits to weak or partial responses and may not hold up.
Potency is the fitted concentration of half-maximal effect.

Assay: Nrf2 qHTS screen for inhibitors; note: nearly all actives have a fitted effect of over 60% in size
Details: A549 ARE-Fluc reporter, luciferase luminescence, 18-24 h; series mostly up to 46 µM
In short: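 Concentration-response testing used A549 ARE_Fluc cells at 5000 cells/well. Following an 18-24 h compound incubation, viability was read by fluorescence (Ex 405/Em 525) and luciferase output by luminescence.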
For `COc1ccc(OCc2cccc(C(=O)Nc3ccc(CN4CCCCC4)cc3)c2)cc1`, the Potency was inconclusive: 2.91 µM [activator, full curve]. With `CCCOc1ccc(CN(C(=O)c2nc(SC(C)C)ncc2Cl)C2CCS(=O)(=O)C2)cc1` (centres undefined) the Potency was “inactive”. For `COc1ccc(S(=O)(=O)N2CCN(C)CC2c2ccccc2)cc1OC` (centres undefined), the Potency was “inactive”. For `OCCCNc1ncnc2c1cnn2-c1ccc(Cl)cc1`, the Potency was inconclusive: 2.31 µM [activator, full curve, poor fit]. In the case of `Cc1ccc(S(=O)(=O)N2CCN(c3nc(-c4cscn4)nc4ccccc34)CC2)cc1`, the Potency is reported as “inactive”. For `CCN1CCN(c2sc(S(C)(=O)=O)nc2S(=O)(=O)c2ccc(Cl)cc2)CC1`, the Potency was inconclusive: 16.4 µM [falling, single point]. For `Cc1cccc(C2c3[nH]c4ccccc4c3CCN2C(=O)c2cc3c([nH]c2=O)CCCC3)n1` (centres undefined), the Potency was inconclusive: 0.82 µM [falling, full curve]. With `CC(C)OC(=O)CN1C(=O)C(=O)c2ccccc21` the Potency was inconclusive: 0.0461 µM [falling, full curve, poor fit]. For `CSc1ccc(CCNC(=O)CCc2c(C)nc3cc(-c4ccccc4)nn3c2C)cc1`, the Potency was inconclusive: 2.31 µM [falling, full curve]. In the case of `CCCN1CNc2c(c(=O)[nH]c(=S)n2CCc2cccc(C)c2)C1`, the Potency is reported as “inactive”. For `COC(=O)c1ccccc1NC(=O)c1cn(-c2ccc(C)c(C)c2)c(=O)c2ccccc12`, the Potency was inconclusive: 25.9 µM [falling, single point]. With `O=[N+]([O-])c1ccc(NC(c2ccccc2)c2ccc3cccnc3c2O)cc1` (centres undefined) the Potency was inconclusive: 18.4 µM [falling, single point]. With `CC(C)(C)c1ccc(C(=O)C2CCCN(C(=O)c3ccccn3)C2)cc1` (centres undefined) the Potency was inconclusive: 32.6 µM [falling, single point]. With `Cc1cc(CNC(=O)COc2ccc(F)cc2F)c2ccccc2n1` the Potency was active: 16.4 µM. For `Cc1nnsc1C(=O)NNc1ccc(C(C)C)cc1`, the Potency was inconclusive: 7.31 µM [activator, partial curve]. For `Cc1ccc(-c2nc3ccc(Cl)cn3c2Nc2ccc3c(c2)OCCO3)s1`, the Potency was “inactive”. With `C[C@H](CO)N1C[C@H](C)[C@@H](CN(C)Cc2ccc(Cl)c(Cl)c2)Oc2c(NC(=O)C3CC3)cccc2C1=O` the Potency was inconclusive: 29.1 µM [falling, single point]. With `COc1ccc(CNC(=O)CN2C(=O)CCCc3ccccc32)cc1` the Potency was inconclusive: 20.6 µM [activator, single point]. For `COc1cc(CNc2ccc3[nH]c(=O)[nH]c3c2)ccc1OCc1ccc(F)cc1`, the Potency was “inactive”.
